Among the data in publication PMC12214610 are binding values, retold here.

Amino acid sequences for entries named in this document (tags omitted).
UniProt P16761: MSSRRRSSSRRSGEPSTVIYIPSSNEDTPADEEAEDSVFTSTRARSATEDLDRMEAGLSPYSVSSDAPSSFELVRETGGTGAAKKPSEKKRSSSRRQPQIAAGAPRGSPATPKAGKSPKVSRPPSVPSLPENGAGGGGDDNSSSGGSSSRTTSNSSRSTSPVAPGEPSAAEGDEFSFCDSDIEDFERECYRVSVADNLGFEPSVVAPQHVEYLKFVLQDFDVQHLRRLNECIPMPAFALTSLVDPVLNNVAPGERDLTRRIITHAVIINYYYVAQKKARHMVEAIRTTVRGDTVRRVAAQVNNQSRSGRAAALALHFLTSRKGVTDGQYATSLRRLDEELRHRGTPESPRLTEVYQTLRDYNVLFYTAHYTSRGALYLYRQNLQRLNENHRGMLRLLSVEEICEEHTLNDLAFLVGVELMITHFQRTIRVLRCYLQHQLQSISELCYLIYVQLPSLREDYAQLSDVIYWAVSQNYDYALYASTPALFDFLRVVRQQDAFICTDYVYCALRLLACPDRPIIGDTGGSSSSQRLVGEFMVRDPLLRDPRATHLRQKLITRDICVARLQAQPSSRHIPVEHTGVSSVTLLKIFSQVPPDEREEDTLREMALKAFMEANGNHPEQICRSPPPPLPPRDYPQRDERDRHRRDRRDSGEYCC
UniProt O00571: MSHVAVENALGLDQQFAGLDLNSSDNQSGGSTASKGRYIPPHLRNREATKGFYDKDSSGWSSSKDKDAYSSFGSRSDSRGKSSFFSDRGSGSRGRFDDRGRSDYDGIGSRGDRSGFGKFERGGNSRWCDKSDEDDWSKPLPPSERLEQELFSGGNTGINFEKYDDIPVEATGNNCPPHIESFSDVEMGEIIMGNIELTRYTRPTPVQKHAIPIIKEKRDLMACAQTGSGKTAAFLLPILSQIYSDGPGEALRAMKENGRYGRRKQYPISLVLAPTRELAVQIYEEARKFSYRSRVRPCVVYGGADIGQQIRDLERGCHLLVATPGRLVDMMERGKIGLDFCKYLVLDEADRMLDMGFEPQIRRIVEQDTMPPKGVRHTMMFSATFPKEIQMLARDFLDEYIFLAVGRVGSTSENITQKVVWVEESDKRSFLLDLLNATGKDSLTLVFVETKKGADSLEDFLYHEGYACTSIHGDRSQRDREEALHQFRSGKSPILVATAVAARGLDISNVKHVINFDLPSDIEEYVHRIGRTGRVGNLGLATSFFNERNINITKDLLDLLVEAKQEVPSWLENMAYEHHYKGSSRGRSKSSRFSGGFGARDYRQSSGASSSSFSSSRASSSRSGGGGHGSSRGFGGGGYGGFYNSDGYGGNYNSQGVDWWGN

The target of this test is UL25 (human cytomegalovirus) (UniProt P16761).

No constants are given. Whether binding was seen depends on the method and setting. In cells and extracts the contact can be indirect. Some binding calls cover weakened binding; strength is not graded here.

As for DDX3X (from UniProt O00571 1-662), the binding entry is “binds”.
